According to PMC3967986:
Results are given in words; binding and its absence hold for the method and conditions named. For some assays here: In cells and extracts the contact can be indirect. Some results given as binding are weak or reduced against the parent protein; the word gives no strength. Where a sequence is shown, tags or fusion partners need not be part of it.

Assays:
[1] = biological target: NAC089 (yeast two-hybrid fusion) (Arabidopsis thaliana) (UniProt Q94F58); experiment: two-hybrid; yeast 2-hybrid assay of NAC089 dimer formation (Figure S3C-D); constructs and reporters not described
[2] = biological target: NAC089 (BiFC fusion) (Arabidopsis thaliana) (UniProt Q94F58); experiment: split reporter; BiFC of NAC089 dimer formation (Figure S3E-F), seen by laser confocal fluorescence microscopy (Zeiss LSM A710); host cells not stated

binding [1] | binding [2] | Binder
binds |  | NAC089 (yeast two-hybrid fusion) (protein, UniProt Q94F58 1-340) MDTKAVGVSKDTAASMEASTVFPGFKFSPTDVELISYYLKRKMDGLERSVEVIPDLEIYNFEPWDLPDKSIVKSDSEWFFFCARGKKYPHGSQNRRATKMGYWKATGKERDVKSGSEVIGTKRTLVFHIGRAPKGERTDWIMHEYCVKGVSLDDAMVVCRVRRNKEYNSGTSQKAPKPNSSAEKHAKVQNGATSSGSPSDWDNLVDFYLAGESGEKLLAEMAESSENLQVDNDEDFFADILRDEIINLDEAVMTGNTPNEVPTLESASMEIRVLPLPNMIDKQMSSLLEERPSQKKKGKDATESLSSCFVGLYSIKSVNKARWDVIIGVVALIAMLFYLE
 | binds | NAC089 (BiFC fusion) (protein, UniProt Q94F58 1-340) MDTKAVGVSKDTAASMEASTVFPGFKFSPTDVELISYYLKRKMDGLERSVEVIPDLEIYNFEPWDLPDKSIVKSDSEWFFFCARGKKYPHGSQNRRATKMGYWKATGKERDVKSGSEVIGTKRTLVFHIGRAPKGERTDWIMHEYCVKGVSLDDAMVVCRVRRNKEYNSGTSQKAPKPNSSAEKHAKVQNGATSSGSPSDWDNLVDFYLAGESGEKLLAEMAESSENLQVDNDEDFFADILRDEIINLDEAVMTGNTPNEVPTLESASMEIRVLPLPNMIDKQMSSLLEERPSQKKKGKDATESLSSCFVGLYSIKSVNKARWDVIIGVVALIAMLFYLE
